Data on 2 substances can be found in paper doi:10.1101/2022.06.09.495453.

Protein sequences, listed by entry. Tags and fused reporters are not part of them. Lines headed by an entry give the natural chain unless they say otherwise; changes in a name come on top.
UniProt Q9UI95: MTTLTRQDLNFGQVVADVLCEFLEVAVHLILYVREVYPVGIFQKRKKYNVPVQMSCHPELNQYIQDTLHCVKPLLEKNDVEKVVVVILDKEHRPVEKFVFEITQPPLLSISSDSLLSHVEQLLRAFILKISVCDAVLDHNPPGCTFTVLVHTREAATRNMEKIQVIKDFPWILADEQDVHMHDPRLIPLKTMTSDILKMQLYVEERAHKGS

These are yes or no findings as the source states them, for the method shown. A result given as binding can be weak or reduced; the word gives no strength. For some assays here: Tags and fused reporters may be left off the sequences shown.

In one experiment the target is T1, MBP-SHLD3^45-60 (human) (UniProt Q6ZNX1).
T1 sequence: DGSKLPLRPKRSPPVI
Put plainly: pull-down.

A further experiment concerns the target T2, GST-SHLD3^1-62 (human) (UniProt Q6ZNX1).
T2 sequence: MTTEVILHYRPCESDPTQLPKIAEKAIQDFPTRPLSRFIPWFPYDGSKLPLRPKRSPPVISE
Put plainly: SEC.

In another experiment the target is REV7^ΔN (human) (UniProt Q9UI95). Put plainly: SEC. (In gel filtration, larger molecules generally elute earlier.)

On to REV7^ΔC (from UniProt Q9UI95), for which the figures for the binding entry in the experiment with MBP-SHLD3^45-60 (human), in the experiment with GST-SHLD3^1-62 (human) and with REV7^ΔN (human) were “no binding (tested: 2 μM)”, “no binding (tested: 5 μM)” and “binds”, respectively.

Take REV7^ΔN (from UniProt Q9UI95): the binding entry with MBP-SHLD3^45-60 (human) and with GST-SHLD3^1-62 (human) was “binds” throughout.
